T1: 3xFlag-PAK6 K436M (UniProt Q9NQU5)
T1 sequence: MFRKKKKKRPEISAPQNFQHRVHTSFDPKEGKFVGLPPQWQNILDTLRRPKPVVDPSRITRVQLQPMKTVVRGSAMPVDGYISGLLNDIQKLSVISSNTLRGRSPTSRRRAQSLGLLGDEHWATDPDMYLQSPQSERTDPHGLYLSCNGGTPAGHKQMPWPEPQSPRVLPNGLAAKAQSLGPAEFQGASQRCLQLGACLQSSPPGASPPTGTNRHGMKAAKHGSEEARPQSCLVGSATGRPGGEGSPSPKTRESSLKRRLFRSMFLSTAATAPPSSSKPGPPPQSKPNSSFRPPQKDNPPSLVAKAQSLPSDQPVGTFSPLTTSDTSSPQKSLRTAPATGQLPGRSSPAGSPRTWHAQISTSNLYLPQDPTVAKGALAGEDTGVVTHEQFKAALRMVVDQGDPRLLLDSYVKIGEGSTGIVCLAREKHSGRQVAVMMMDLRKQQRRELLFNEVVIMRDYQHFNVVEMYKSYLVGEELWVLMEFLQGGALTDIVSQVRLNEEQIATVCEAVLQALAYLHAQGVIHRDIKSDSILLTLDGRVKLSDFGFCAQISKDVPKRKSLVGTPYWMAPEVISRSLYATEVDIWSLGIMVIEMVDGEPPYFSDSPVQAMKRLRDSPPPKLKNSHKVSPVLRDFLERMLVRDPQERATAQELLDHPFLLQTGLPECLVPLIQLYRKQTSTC

B1: 14-3-3 theta (endogenous, HEK293T) (protein, UniProt P27348 1-245)
chain: MEKTELIQKAKLAEQAERYDDMATCMKAVTEQGAELSNEERNLLSVAYKNVVGGRRSAWRVISSIEQKTDTSDKKLQLIKDYREKVESELRSICTTVLELLDKYLIANATNPESKVFYLKMKGDYFRYLAEVACGDDRKQTIDNSQGAYQEAFDISKKEMQPTHPIRLGLALNFSVFYYEILNNPELACTLAKTAFDEAIAELDTLNEDSYKDSTLIMQLLRDNLTLWTSDSAGEECDAAEGAEN
B2: 14-3-3 eta (endogenous, HEK293T) (protein, UniProt Q04917 1-246)
chain: MGDREQLLQRARLAEQAERYDDMASAMKAVTELNEPLSNEDRNLLSVAYKNVVGARRSSWRVISSIEQKTMADGNEKKLEKVKAYREKIEKELETVCNDVLSLLDKFLIKNCNDFQYESKVFYLKMKGDYYRYLAEVASGEKKNSVVEASEAAYKEAFEISKEQMQPTHPIRLGLALNFSVFYYEIQNAPEQACLLAKQAFDDAIAELDTLNEDSYKDSTLIMQLLRDNLTLWTSDQQDEEAGEGN
B3: 14-3-3 gamma (endogenous, HEK293T) (protein, UniProt P61981 1-247)
chain: MVDREQLVQKARLAEQAERYDDMAAAMKNVTELNEPLSNEERNLLSVAYKNVVGARRSSWRVISSIEQKTSADGNEKKIEMVRAYREKIEKELEAVCQDVLSLLDNYLIKNCSETQYESKVFYLKMKGDYYRYLAEVATGEKRATVVESSEKAYSEAHEISKEHMQPTHPIRLGLALNYSVFYYEIQNAPEQACHLAKTAFDDAIAELDTLNEDSYKDSTLIMQLLRDNLTLWTSDQQDDDGGEGNN

We go through 3 molecules from paper PMC5735978.

No constants are given. Whether binding was seen depends on the method and setting. Binding seen in cells or lysates may run through a third protein. Here binding means that the protein was enriched with, or labelled near, the bait; the list need not be complete. For part of these data: A no says only that the protein was not detected with the bait. For part of these data: Tags and fused reporters may be left off the sequences shown.

The first test deals with 3xFlag-PAK6 wild-type (UniProt Q9NQU5). The test can be described thus: affinity purification with mass spectrometry; 3xFlag-PAK6 variants immunoprecipitated from transfected HEK293T lysates with anti-Flag M2 agarose; SDS-PAGE, Coomassie staining; doublet around 25 kDa identified by LC-MS/MS.
For the molecule B1, the binding result is “binds”.

As to B2, the binding result was “binds”.

As for B3, the binding entry is listed as “binds”.

For another test, the target named is T1, 3xFlag-PAK6 K436M. The description is as above.
For the molecule B1, the binding result is “no binding”.

Take B2: the binding entry is recorded as “no binding”.

On to B3, for which the binding result is “no binding”.

The next test has as its target 3xFlag-PAK6 S531N (UniProt Q9NQU5). Described as above.
Regarding B1, the binding entry is given as “binds”.

As for B2, the binding entry was “binds”.

In the case of B3, the binding entry is reported as “binds”.
